According to PMC11561307 (Nature Communications, 2024):

Assay: Direct lanthanide complexation with empty cages
Settings: for abundance - 1 week: Supp. Fig. 11B; for abundance - 1 hour: Supp. Fig. 11A

| SMILES | abundance - 1 week (direct complexation with CaII) | abundance - 1 week (direct complexation with CeIII) | abundance - 1 week (direct complexation with DyIII) | abundance - 1 week (direct complexation with ErIII) | abundance - 1 week (direct complexation with EuIII) | abundance - 1 week (direct complexation with GdIII) | abundance - 1 week (direct complexation with HoIII) | abundance - 1 week (direct complexation with LaIII) | abundance - 1 week (direct complexation with LuIII) | abundance - 1 week (direct complexation with NdIII) | abundance - 1 week (direct complexation with PrIII) | abundance - 1 week (direct complexation with ScIII) | abundance - 1 week (direct complexation with SmIII) | abundance - 1 week (direct complexation with TbIII) | abundance - 1 week (direct complexation with TmIII) | abundance - 1 week (direct complexation with YIII) | abundance - 1 week (direct complexation with YbIII) | abundance - 1 hour (direct complexation with CaII) | abundance - 1 hour (direct complexation with CeIII) | abundance - 1 hour (direct complexation with DyIII) | other results |
| --- | --- | --- | --- | --- | --- | --- | --- | --- | --- | --- | --- | --- | --- | --- | --- | --- | --- | --- | --- | --- | --- |
| O=C(O)CN1CCN2CCN(CC(=O)O)CCN(CC1)Cc1cccc(n1)-c1cn(nn1)Cc1cc(-c3ccccc3)cc(n1)C2 [1,4-cz-PhL^1] | 76.6% | 1.5% | 29.2% | 26.8% | 47.9% | 47.9% | 27.7% | 89.7% | 36.0% | 88.9% | 91.7% | 97.5% | 60.5% | 31.2% | 24.6% | 41.3% | 37.5% | – | – | – | – |
| O=C([O-])CN1CCN2CCN(CC(=O)[O-])CCN(CC1)Cc1cccc(n1)-c1cn(nn1)Cc1cc(-c3ccccc3)cc(n1)C2.[Ca+2] [1,4-cz-[Ca(PhL1)]] | 21.0% | 0.0% | 0.6% | 0.5% | 0.8% | 0.8% | 0.6% | 2.5% | 0.7% | 1.3% | 1.6% | 1.0% | 0.8% | 0.6% | 0.4% | 1.0% | 0.5% | – | – | – | – |
| O=C([O-])CN1CCN2CCN(CC(=O)[O-])CCN(CC1)Cc1cccc(n1)-c1cnnn1Cc1cc(-c3ccccc3)cc(n1)C2.[Ca+2] [Ph{Ca}] | – | – | – | – | – | – | – | – | – | – | – | – | – | – | – | – | – | 96.3% | 19.3% | 14.6% | abundance - 1 hour (direct complexation with ErIII): 10.4%; abundance - 1 hour (direct complexation with EuIII): 13.3%; abundance - 1 hour (direct complexation with GdIII): 17.9%; abundance - 1 hour (direct complexation with HoIII): 16.8%; abundance - 1 hour (direct complexation with LaIII): 15.5%; abundance - 1 hour (direct complexation with LuIII): 13.0%; abundance - 1 hour (direct complexation with NdIII): 18.8%; abundance - 1 hour (direct complexation with PrIII): 16.9%; abundance - 1 hour (direct complexation with ScIII): 18.0%; abundance - 1 hour (direct complexation with SmIII): 15.3%; abundance - 1 hour (direct complexation with TbIII): 12.9%; abundance - 1 hour (direct complexation with TmIII): 12.9%; abundance - 1 hour (direct complexation with YIII): 11.8%; abundance - 1 hour (direct complexation with YbIII): 11.7% |
| O=C(O)CN1CCN2CCN(CC(=O)O)CCN(CC1)Cc1cccc(n1)-c1cnnn1Cc1cc(-c3ccccc3)cc(n1)C2 [1,5-cz-PhL^1] | – | – | – | – | – | – | – | – | – | – | – | – | – | – | – | – | – | 2.7% | 76.4% | 83.8% | abundance - 1 hour (direct complexation with ErIII): 87.7%; abundance - 1 hour (direct complexation with EuIII): 84.9%; abundance - 1 hour (direct complexation with GdIII): 80.3%; abundance - 1 hour (direct complexation with HoIII): 81.6%; abundance - 1 hour (direct complexation with LaIII): 82.2%; abundance - 1 hour (direct complexation with LuIII): 85.8%; abundance - 1 hour (direct complexation with NdIII): 79.1%; abundance - 1 hour (direct complexation with PrIII): 81.1%; abundance - 1 hour (direct complexation with ScIII): 80.6%; abundance - 1 hour (direct complexation with SmIII): 82.8%; abundance - 1 hour (direct complexation with TbIII): 85.2%; abundance - 1 hour (direct complexation with TmIII): 85.6%; abundance - 1 hour (direct complexation with YIII): 87.2%; abundance - 1 hour (direct complexation with YbIII): 85.4% |
